PubChem BioAssay AID1224830, NIAID | 2016

Aim: 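Genes whose knock-down alters the TNF-alpha reporter response to LPS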 (primary screen)
System: human THP-1 monocytic leukaemia cells, TNF dual-luciferase reporter clone, PMA-differentiated to macrophage-like cells
Reagents: siRNA pool against human genes, 50 nM
Timing: LPS for 4 h, given about 3 days after siRNA transfection
Conditions: bacterial LPS (TLR4 ligand), 10 ng/ml
Read-out: 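TNF firefly reporter luminescence divided by renilla, normalised to the plate median, then turned into a robust z-score for each replicate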
Scale: TNF reporter robust z-score: higher = stronger TNF reporter response to LPS
Call rule: 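a well is active when its z-score exceeds 2.8 or falls below -1.5; control wells carry no call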
Here is a random part of about 18,000 deposited reagents. In the full data, about 2,900 (16%) got an active call. 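Calls are made per well; low scores hint the gene aids the LPS response, high scores that it dampens it.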 Repeated entries: four replicate wells of each siRNA pool.

gene knocked down	TNF reporter robust z-score	call
C17orf75 (chromosome 17 open reading frame 75)	-0.63	inactive
C17orf75 (chromosome 17 open reading frame 75)	-0.86	inactive
C17orf75 (chromosome 17 open reading frame 75)	-0.13	inactive
CNTN6 (contactin 6)	-0.48	inactive
CNTN6 (contactin 6)	-0.36	inactive
CNTN6 (contactin 6)	0.06	inactive
CNTN6 (contactin 6)	1.46	inactive
CEP152 (centrosomal protein 152)	-0.91	inactive
CEP152 (centrosomal protein 152)	-1.5	inactive
CEP152 (centrosomal protein 152)	-1.01	inactive
CEP152 (centrosomal protein 152)	-1.37	inactive
STAB1 (stabilin 1)	-0.22	inactive
STAB1 (stabilin 1)	-0.52	inactive
STAB1 (stabilin 1)	0.17	inactive
STAB1 (stabilin 1)	-0.76	inactive
TMED4 (transmembrane p24 trafficking protein 4)	-1.36	inactive
TMED4 (transmembrane p24 trafficking protein 4)	-1.78	active
TMED4 (transmembrane p24 trafficking protein 4)	-1.68	active
TMED4 (transmembrane p24 trafficking protein 4)	-1.79	active
TMEM140 (transmembrane protein 140)	0.48	inactive
TMEM140 (transmembrane protein 140)	1.01	inactive
TMEM140 (transmembrane protein 140)	1.37	inactive
TMEM140 (transmembrane protein 140)	0.81	inactive
AIFM3 (AIF family member 3)	1.44	inactive
AIFM3 (AIF family member 3)	1.87	inactive
AIFM3 (AIF family member 3)	1.64	inactive
AIFM3 (AIF family member 3)	1.78	inactive
SPIRE1 (spire type actin nucleation factor 1)	0.32	inactive
SPIRE1 (spire type actin nucleation factor 1)	3.78	active
SPIRE1 (spire type actin nucleation factor 1)	1.75	inactive
SPIRE1 (spire type actin nucleation factor 1)	1.04	inactive
ENAH (ENAH actin regulator)		inactive
ENAH (ENAH actin regulator)	-0.67	inactive
ENAH (ENAH actin regulator)	-0.61	inactive
ENAH (ENAH actin regulator)	-0.47	inactive
ENAH (ENAH actin regulator)	-0.59	inactive
TTC9C (tetratricopeptide repeat domain 9C)	0.37	inactive
TTC9C (tetratricopeptide repeat domain 9C)	-0.66	inactive
TTC9C (tetratricopeptide repeat domain 9C)	-1.06	inactive
TTC9C (tetratricopeptide repeat domain 9C)	-0.46	inactive
NRCAM (neuronal cell adhesion molecule)	0.21	inactive
NRCAM (neuronal cell adhesion molecule)	1.66	inactive
NRCAM (neuronal cell adhesion molecule)	0.27	inactive
NRCAM (neuronal cell adhesion molecule)	-0.84	inactive
FAM135A (family with sequence similarity 135 member A)	-0.22	inactive
FAM135A (family with sequence similarity 135 member A)	-0.73	inactive
FAM135A (family with sequence similarity 135 member A)	-0.37	inactive
FAM135A (family with sequence similarity 135 member A)	-1.13	inactive

In a second layout: results already given.
| gene knocked down | TNF reporter robust z-score | call |
| --- | --- | --- |
| AIFM3 (AIF family member 3) | 1.44 | inactive |
| AIFM3 (AIF family member 3) | 1.87 | inactive |
| AIFM3 (AIF family member 3) | 1.64 | inactive |
| AIFM3 (AIF family member 3) | 1.78 | inactive |
| SPIRE1 (spire type actin nucleation factor 1) | 0.32 | inactive |
| SPIRE1 (spire type actin nucleation factor 1) | 3.78 | active |
| SPIRE1 (spire type actin nucleation factor 1) | 1.75 | inactive |
| SPIRE1 (spire type actin nucleation factor 1) | 1.04 | inactive |
